Source: article PMC12636044, “Membrane binding of a cyanobacterial ESCRT‐III protein crucially involves the helix α1‐3 hairpin conserved in all superfamily members” (Protein Science : A Publication of the Protein Society, 2025)
No constants are given. Whether binding was seen depends on the method and setting. Some binding calls cover weakened binding; strength is not graded here.

Experiments:
[1] = biological target: IM30 α1-3 (Synechocystis) (UniProt Q55707); assay: native MS; 10 μM protein in 200 mM ammonium acetate, Q-ToF Ultima; self-association; both purified
[2] = biological target: IM30 α1-3 (Synechocystis) (UniProt Q55707); assay: cross-linking; BS3 (285 μM), 5.7 μM protein in solution without liposomes, 25°C, SDS-PAGE; self-association; both purified

B1: IM30 α1-3 (domain or fragment, Synechocystis, UniProt Q55707 26-156, looked up)
chain: EKVLEQAVIDMQEDLVQLRQAVARTIAEEKRTEQRLNQDTQEAKKWEDRAKLALTNGEENLAREALARKKSLTDTAAAYQTQLAQQRTMSENLRRNLAALEAKISEAKTKKNMLQARAKAAKANAELQQTL
notes: IM30 (Vipp1) of Synechocystis, helical hairpin α1-3, residues 26-156 (printed for the α1-3 fragment in the simulation); calculated mass about 17.5 kDa; also called IM30 αH1-3; α1-3 helical hairpin; not shown: His10, N-terminal, kept
binding [1]: binds weakly
binding [2]: binds weakly
